At least one compound was matched to its structure with a doubt left.
Tested on: Fusarium verticillioides
Conditions: safeners alone at 100 gai/ha, maize

For `COc1ccccc1C(=O)NS(=O)(=O)c1ccc(C(=O)NC2CC2)cc1` [Cyprosulfamide, N-[[4-[(cyclopropylamino)carbonyl]phenyl]sulfonyl]-2-methoxybenzamide], which “F. verticilliodes disease severity (in words)” value is on record?
Its value is “greatly reduced”.
